In PubChem BioAssay AID2685 (National Center for Advancing Translational Sciences (NCATS), 2010):
In all, about 320,000 compounds went through this assay and about 2,100 (0.66%) were called active. The inconclusive results got no clear call from the source; some entries with a clear call stand among them for comparison. The call rests on the fitted dose curve; in most records, active means well fitted inhibition curve with a large enough effect in the signal ratio, with a control signal flat (not every such curve was filed as active); inconclusive means small, poorly fitted or top-dose-only effect, or effect the other way, or a change in a side signal; inactive means flat fitted curve, though single readings scatter; the % refers to the signal ratio. A potency beside an inconclusive call is a rough fit, not a confirmed value.

Assay: qHTS Assay for Lipid Storage Modulators in Drosophila S3 Cells
Settings: BODIPY lipid droplet fluorescence, 18-24 h, cells fed with added oleic acid; lipid storage change, negative = inhibition: at 46.1 µM (top of the series) unless noted
How it was run: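 Drosophila S3 cells got compounds at several concentrations plus oleic acid (400 uM solution). Laser-scanning cytometry with 488 nm excitation read lipid droplets at 500-530 nm and cells at 575-640 nm. Percent activity was relative to 20 uM Triacsin C.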
On the % scale 0 is the no-effect control and ±100 the full control effect; potency means the concentration at half of the fitted maximal effect.

| Structure (SMILES) | lipid storage change, negative = inhibition | Potency |
| --- | --- | --- |
| COc1ccc(CNC(=O)c2ccc(CNc3c(NC4CCCCC4)c(=O)c3=O)cc2)cc1 | inconclusive: -6.58% | – |
| COc1ccccc1N/C=C/c1onc(C)c1[N+](=O)[O-] | inconclusive: 29.6% | – |
| O=C(c1ccc(-c2ccccc2)cc1)N1CCN(Cc2ccccn2)CC1 | inactive: 4.01% | – |
| CN(Cc1ccccc1)C(=O)C1CCN(S(=O)(=O)c2cc([N+](=O)[O-])ccc2Cl)CC1 | – | inconclusive: 13 µM [falling, partial curve] |
| CN(C)S(=O)(=O)c1ccc(Cl)c(C(=O)NC2=NCCS2)c1 | inconclusive: 8.43% | – |
| COc1cc2cc(C(=O)N/N=C/c3cccc(OC)c3OC)[nH]c2cc1OC | inconclusive: -8.62% | – |
| CC(Sc1ccc2ccccc2n1)C(=O)O (centres undefined) | inconclusive: 11% | – |
| CC(=O)c1ccc(NC(=O)c2ccc(NC(=O)c3ccco3)cc2)cc1 | – | inconclusive: 29.1 µM [falling, single point] |
| CCOCCCNC(=O)/C(C#N)=C/c1ccc([N+](=O)[O-])o1 | – | inconclusive: 29.1 µM [falling, single point] |
| Cc1ccc(S(=O)(=O)Nc2ncccn2)cc1 | inconclusive: -20.2% | – |
| O=[N+]([O-])c1ccc(O)c(N=Cc2sc3ccccc3c2O)c1 | inconclusive: -16.2% | – |
| COc1cc(NC(c2ccccc2)c2ccccc2)cc(OC)c1OC | inconclusive: -29.3% | – |
| C=CCN(C(=O)CNS(=O)(=O)c1ccccc1)C(C(=O)NCCOC)c1ccncc1 (centres undefined) | inconclusive: -32.9% | – |
| CC(=O)c1cccc(NC(=S)N2CCCC2)c1 | – | inconclusive: 23.1 µM [falling, single point] |
| C=CCn1c(O)c(C2=c3ccccc3=NC2=O)s/c1=N/c1nccs1 | inconclusive: -13.7% | – |
| CC(=O)c1ccc(N2CCN(C(=O)CNS(=O)(=O)c3ccc4c(c3)OCCCO4)CC2)c(F)c1 | inconclusive: 19.4% | – |
| O=C(CSc1nnc(-c2cccnc2)n1-c1ccccc1)NCc1ccc2c(c1)OCO2 | – | inconclusive: 0.92 µM [activator, partial curve] |
| COC(=O)c1ccc(COC(=O)c2cccnc2Cl)cc1 | inconclusive: 78.1% | – |
| CCCCCC(=O)O[C@]1(C(C)=O)CC[C@H]2[C@@H]3CCC4=CC(=O)CC[C@]4(C)[C@H]3CC[C@@]21C | inconclusive: 4.3% | – |
| CCC(NC(=O)C(C)NC)C(=O)N1CCCC1C(=O)NC1CCCc2ccccc21 (centres undefined) | inconclusive: -74.7% | – |
| CCN(CC)c1ccc(-c2nn3c(-c4n[nH]c5c4CCC5)nnc3s2)cc1 | inconclusive: -18% | – |
| COc1ccc(C(=O)CSc2nccn2C)cc1 | – | inconclusive: 29.1 µM [activator, single point] |
| O=C(CSc1nnc(Cc2cccs2)n1C1CCCCC1)N1CCN(C(=O)c2ccco2)CC1 | – | inconclusive: 5.8 µM [activator, partial curve] |
| CN(C)S(=O)(=O)c1ccc(Cl)c(NC(=O)COC(=O)CCSc2ccccc2)c1 | inconclusive: 15.6% | – |
| CC(=O)Oc1ccc(N(C(C)=O)S(=O)(=O)c2ccc(C)cc2C)c2ccccc12 | inconclusive: 24.8% | – |

14 compounds already listed, ordered by formula weight, rising.

| Structure (SMILES) | lipid storage change, negative = inhibition | Potency |
| --- | --- | --- |
| Cc1ccc(S(=O)(=O)Nc2ncccn2)cc1 | inconclusive: -20.2% | – |
| COc1ccccc1N/C=C/c1onc(C)c1[N+](=O)[O-] | inconclusive: 29.6% | – |
| COC(=O)c1ccc(COC(=O)c2cccnc2Cl)cc1 | inconclusive: 78.1% | – |
| CN(C)S(=O)(=O)c1ccc(Cl)c(C(=O)NC2=NCCS2)c1 | inconclusive: 8.43% | – |
| COc1cc(NC(c2ccccc2)c2ccccc2)cc(OC)c1OC | inconclusive: -29.3% | – |
| O=C(c1ccc(-c2ccccc2)cc1)N1CCN(Cc2ccccn2)CC1 | inactive: 4.01% | – |
| C=CCn1c(O)c(C2=c3ccccc3=NC2=O)s/c1=N/c1nccs1 | inconclusive: -13.7% | – |
| CCN(CC)c1ccc(-c2nn3c(-c4n[nH]c5c4CCC5)nnc3s2)cc1 | inconclusive: -18% | – |
| COc1cc2cc(C(=O)N/N=C/c3cccc(OC)c3OC)[nH]c2cc1OC | inconclusive: -8.62% | – |
| CCCCCC(=O)O[C@]1(C(C)=O)CC[C@H]2[C@@H]3CCC4=CC(=O)CC[C@]4(C)[C@H]3CC[C@@]21C | inconclusive: 4.3% | – |
| O=C(CSc1nnc(-c2cccnc2)n1-c1ccccc1)NCc1ccc2c(c1)OCO2 | – | inconclusive: 0.92 µM [activator, partial curve] |
| C=CCN(C(=O)CNS(=O)(=O)c1ccccc1)C(C(=O)NCCOC)c1ccncc1 (centres undefined) | inconclusive: -32.9% | – |
| CC(=O)c1ccc(N2CCN(C(=O)CNS(=O)(=O)c3ccc4c(c3)OCCCO4)CC2)c(F)c1 | inconclusive: 19.4% | – |
| O=C(CSc1nnc(Cc2cccs2)n1C1CCCCC1)N1CCN(C(=O)c2ccco2)CC1 | – | inconclusive: 5.8 µM [activator, partial curve] |

Continuation:

| Structure (SMILES) | lipid storage change, negative = inhibition | Potency |
| --- | --- | --- |
| CN(C)S(=O)(=O)c1ccc(NC=O)cc1 | inconclusive: -4.46% | – |
| O=C(Nc1nc2ccccc2s1)C1c2ccccc2Oc2ccccc21 | – | inconclusive: 0.0046 µM [falling, full curve, poor fit] |
| Cn1nnc2cc(C(=O)NC3CCCCC3)ccc21 | inconclusive: 41.7% | – |
| O=S(=O)(c1ccc(C2CCCCC2)cc1)N1CCOCC1 | inconclusive: 6.51% | – |
| O=C1Nc2ccccc2S/C1=C/Nc1cccc(Cl)c1 | – | inconclusive: 0.82 µM [rising, full curve] |
| C/C(=N\O)c1ccc2c3ccccc3n(C)c2c1 | inconclusive: -16.5% | – |
| CCSC(=S)Nc1c(C)n(C)n(-c2ccccc2)c1=O | inconclusive: -31.5% | – |
| COC(=O)c1c(NC(=O)CN2C(=O)NC3(CCc4ccccc4C3)C2=O)sc2c1CCCCC2 (centres undefined) | inconclusive: 26% | – |
| NNC(=O)c1ccc2ccccc2n1 | inconclusive: -2.38% | – |
| CCCCCC1CC(CC(=O)Nc2ccc([N+](=O)[O-])cc2)C(=O)O1 (centres undefined) | – | inconclusive: 23.1 µM [cytotoxic, single point] |
| CC(c1ccccc1)C1CC(=O)N(c2ccc(C(=O)O)cc2)C1=O (centres undefined) | inconclusive: -52.9% | – |
| CCOc1ccc2c(c1)c1nnc(SCC(=O)NC3CC3)nc1n2C | inconclusive: -30.6% | – |
| CC(NC(=O)c1ccccc1Cl)C(=O)N1CCN(Cc2ccc3c(c2)OCO3)CC1 (centres undefined) | inconclusive: -8.79% | – |
| Cc1cc(OCC(O)CNC(C)(C)C)ccc1Cl (centres undefined) | inactive: 0.716% | – |
| COc1ccc(C(C(=O)NCc2ccccc2)N(Cc2ccco2)C(=O)c2snc(C(N)=O)c2N)cc1OC (centres undefined) | – | inconclusive: 29.1 µM [falling, single point] |
| COc1ccc(NC(=O)CN2CCC(C(=O)c3ccc(C)cc3)CC2)c(OC)c1 | – | inconclusive: 29.1 µM [activator, single point] |
| O=C(CCC(=O)N1CCN(c2ccccc2F)CC1)N1CCN(c2ccc(F)cc2)CC1 | – | inconclusive: 29.1 µM [activator, single point] |
| COc1ccc(SCCN2CC[C@@H](O)CCC2=O)cc1 | – | inconclusive: 29.1 µM [activator, single point] |
| CCOC(=O)Cc1csc(NC(=O)c2sc3nc4cc(C)ccc4cc3c2N)n1 | – | inconclusive: 18.4 µM [falling, partial curve] |
| Cc1ccc(N(C)S(=O)(=O)c2ccc(-c3cc(C)no3)s2)cc1 | inconclusive: -18.7% | – |
| O=C1OC(N2CCN(c3ccccn3)CC2)c2ccccc21 (centres undefined) | – | inconclusive: 29.1 µM [cytotoxic, single point] |
| C=CCSC1=C(C#N)C(c2ccccc2OC)CC(=O)N1 (centres undefined) | inconclusive: 6.23% | – |
| CCOc1nc(-c2ccc(Cl)cc2Cl)ccc1C#N | – | inconclusive: 1.64 µM [rising, partial curve] |
| Cc1ccc(OCC(=O)Nc2cc(S(=O)(=O)N3CCOCC3)ccc2Cl)c([N+](=O)[O-])n1 | inconclusive: -30% | – |
